Data: article PMC11170954, “Effect of Peptide–Polymer Host–Guest Electrostatic Interactions on Self-Assembling Peptide Hydrogels Structural and Mechanical Properties and Polymer Diffusivity” (Biomacromolecules, 2024)
Ends that are not written are not given here.

Test: Oscillatory shear rheology and injectability
Type: physicochemical
Details: 0.2% strain, 1 Hz, 8–20 mg mL^–1, pH 7

Row | Sequence | exponent of power law G′ ∝ C^n (storage modulus vs peptide concentration)
1 | KFEFKFEFK [K(FEFK)2] | 3.3
2 | EFKFEFKFE [E(FKFE)2] | 2.3
